No constants are given. Whether binding was seen depends on the method and setting. Binding seen in cells or lysates may run through a third protein.
Target: T1, dBRE1 (Drosophila (endogenous in embryos)) (UniProt Q9VRP9)
T1 sequence: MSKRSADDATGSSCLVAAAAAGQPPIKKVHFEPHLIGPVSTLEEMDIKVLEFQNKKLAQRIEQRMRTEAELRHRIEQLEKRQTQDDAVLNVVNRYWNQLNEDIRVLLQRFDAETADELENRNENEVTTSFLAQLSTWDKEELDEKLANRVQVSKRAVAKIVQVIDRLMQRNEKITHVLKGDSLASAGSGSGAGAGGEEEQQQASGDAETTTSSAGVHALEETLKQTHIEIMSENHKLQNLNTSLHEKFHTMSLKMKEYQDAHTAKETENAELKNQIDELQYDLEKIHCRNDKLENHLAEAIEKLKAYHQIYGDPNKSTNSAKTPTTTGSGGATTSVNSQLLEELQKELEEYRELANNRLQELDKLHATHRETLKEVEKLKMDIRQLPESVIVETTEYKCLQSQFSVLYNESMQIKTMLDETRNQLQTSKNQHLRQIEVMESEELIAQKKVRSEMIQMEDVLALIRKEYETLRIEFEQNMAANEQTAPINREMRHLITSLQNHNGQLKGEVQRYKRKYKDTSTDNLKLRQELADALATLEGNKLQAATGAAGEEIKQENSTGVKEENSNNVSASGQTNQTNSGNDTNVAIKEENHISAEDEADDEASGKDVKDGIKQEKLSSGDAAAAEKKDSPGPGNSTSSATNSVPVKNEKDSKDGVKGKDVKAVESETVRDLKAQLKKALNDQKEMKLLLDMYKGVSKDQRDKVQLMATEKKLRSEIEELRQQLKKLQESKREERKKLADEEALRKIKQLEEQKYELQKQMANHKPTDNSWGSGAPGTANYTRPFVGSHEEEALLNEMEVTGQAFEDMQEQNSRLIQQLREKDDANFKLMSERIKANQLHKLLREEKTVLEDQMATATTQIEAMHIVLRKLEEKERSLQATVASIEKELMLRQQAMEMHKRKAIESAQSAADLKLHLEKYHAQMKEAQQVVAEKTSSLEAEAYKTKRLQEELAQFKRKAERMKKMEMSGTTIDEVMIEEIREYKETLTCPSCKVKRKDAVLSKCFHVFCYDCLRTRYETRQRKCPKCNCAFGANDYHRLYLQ
Assay: co-IP; Drosophila embryonic nuclear protein extracts; IP with antibodies against the endogenous proteins (dRYBP, SCE, dKDM2, dBRE1; reverse: PSC, PC, PH, E(Z)); Western blot; mock: pre-immune serum

binding: no binding
B1: SCE (protein, UniProt Q9VB08 1-435)
chain: MTSLDPAPNKTWELSLYELQRKPQEVITDSTEIAVSPRSLHSELMCPICLDMLKKTMTTKECLHRFCSDCIVTALRSGNKECPTCRKKLVSKRSLRADPNFDLLISKIYPSREEYEAIQEKVMAKFNQTQSQQALVNSINEGIKLQSQNRPQRFRTKGGGGGGGGGGNGNGAANVAAPPAPGAPTAVGRNASNQMHVHDTASNDSNSNTNSIDRENRDPGHSGTSAASAITSASNAAPSSSANSGASTSATRMQVDDASNPPSVRSTPSPVPSNSSSSKPKRAMSVLTSERSEESESDSQMDCRTEGDSNIDTEGEGNGELGINDEIELVFKPHPTEMSADNQLIRALKENCVRYIKTTANATVDHLSKYLAMRLTLDLGADLPEACRVLNFCIYVAPQPQQLVILNGNQTLHQVNDKFWKVNKPMEMYYSWKKT

From paper PMC4240632
